Experimental data as given in the supplement of paper PMC8728848.
This is one part of the list.

Tests used:
Test in all cases: glycan array binding signal (z-score within array); higher = stronger binding
Conditions in all cases: glycan notation: IUPAC condensed, linker removed
[1] = molecular target: GlcNAc(b1-2)Gal(b1-3)GalNAc
Procedure, shortened: (§1)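 The Consortium for Functional Glycomics database supplied 3228 glycan arrays, of which those lacking an available protein sequence were dropped. The binding signal, a within-array Z-score, was averaged across arrays of the same protein sequence and across linkers. Negative scores can be read as non-binding.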

[2] = molecular target: GlcNAc(b1-2)Man(a1-3)[GlcNAc(b1-2)Man(a1-6)]Man(b1-4)GlcNAc(b1-4)GlcNAc
Procedure, shortened: as §1

[3] = molecular target: GlcNAc(b1-2)Man(a1-3)[GlcNAc(b1-2)Man(a1-6)]Man(b1-4)GlcNAc(b1-4)[Fuc(a1-6)]GlcNAc
Procedure, shortened: as §1

[4] = molecular target: GlcNAc(b1-2)Man(a1-3)[GlcNAc(b1-4)][GlcNAc(b1-2)Man(a1-6)]Man(b1-4)GlcNAc(b1-4)GlcNAc
Procedure, shortened: as §1

[5] = molecular target: GlcNAc(b1-2)Man(a1-3)[GlcNAc(b1-4)][GlcNAc(b1-2)Man(a1-6)]Man(b1-4)GlcNAc(b1-4)[Fuc(a1-6)]GlcNAc
Procedure, shortened: as §1

[6] = molecular target: GlcNAc(b1-2)[GlcNAc(b1-4)]Man(a1-3)[GlcNAc(b1-2)Man(a1-6)]Man(b1-4)GlcNAc(b1-4)GlcNAc
Procedure, shortened: as §1

[7] = molecular target: GlcNAc(b1-2)[GlcNAc(b1-4)]Man(a1-3)[GlcNAc(b1-4)][GlcNAc(b1-2)Man(a1-6)]Man(b1-4)GlcNAc(b1-4)GlcNAc
Procedure, shortened: as §1

[8] = molecular target: GlcNAc(b1-2)[GlcNAc(b1-4)]Man(a1-3)[GlcNAc(b1-4)][GlcNAc(b1-2)[GlcNAc(b1-6)]Man(a1-6)]Man(b1-4)GlcNAc(b1-4)GlcNAc
Procedure, shortened: as §1

[9] = molecular target: GlcNAc(b1-2)[GlcNAc(b1-4)]Man(a1-3)[GlcNAc(b1-4)][GlcNAc(b1-2)[GlcNAc(b1-6)]Man(a1-6)]Man(b1-4)GlcNAc(b1-4)[Fuc(a1-6)]GlcNAc
Procedure, shortened: as §1

[10] = molecular target: GlcNAc(b1-2)[GlcNAc(b1-6)]Man(a1-6)[GlcNAc(b1-2)Man(a1-3)]Man(b1-4)GlcNAc(b1-4)GlcNAc
Procedure, shortened: as §1

[11] = molecular target: GlcNAc(b1-2)[GlcNAc(b1-6)]Man(a1-6)[GlcNAc(b1-2)Man(a1-3)]Man(b1-4)GlcNAc(b1-4)[Fuc(a1-6)]GlcNAc
Procedure, shortened: as §1

[12] = molecular target: GlcNAc(b1-2)[GlcNAc(b1-6)]Man(a1-6)[GlcNAc(b1-4)][GlcNAc(b1-2)Man(a1-3)]Man(b1-4)GlcNAc(b1-4)GlcNAc
Procedure, shortened: as §1

[13] = molecular target: GlcNAc(b1-3)Fuc
Procedure, shortened: as §1

[14] = molecular target: GlcNAc(b1-3)Gal
Procedure, shortened: as §1

[15] = molecular target: GlcNAc(b1-3)Gal(b1-3)GalNAc
Procedure, shortened: as §1

[16] = molecular target: GlcNAc(b1-3)Gal(b1-4)Glc
Procedure, shortened: as §1

[17] = molecular target: GlcNAc(b1-3)Gal(b1-4)GlcNAc
Procedure, shortened: as §1

[18] = molecular target: GlcNAc(b1-3)Gal(b1-4)GlcNAc(b1-2)Man(a1-3)[GlcNAc(b1-3)Gal(b1-4)GlcNAc(b1-2)Man(a1-6)]Man(b1-4)GlcNAc(b1-4)GlcNAc
Procedure, shortened: as §1

[19] = molecular target: GlcNAc(b1-3)Gal(b1-4)GlcNAc(b1-2)Man(a1-3)[GlcNAc(b1-3)Gal(b1-4)GlcNAc(b1-2)Man(a1-6)]Man(b1-4)GlcNAc(b1-4)[Fuc(a1-6)]GlcNAc
Procedure, shortened: as §1

[20] = molecular target: GlcNAc(b1-3)Gal(b1-4)GlcNAc(b1-2)[GlcNAc(b1-3)Gal(b1-4)GlcNAc(b1-6)]Man(a1-6)[GlcNAc(b1-3)Gal(b1-4)GlcNAc(b1-2)Man(a1-3)]Man(b1-4)GlcNAc(b1-4)GlcNAc
Procedure, shortened: as §1

[21] = molecular target: GlcNAc(b1-3)Gal(b1-4)GlcNAc(b1-3)Gal(b1-4)GlcNAc
Procedure, shortened: as §1

[22] = molecular target: GlcNAc(b1-3)Gal(b1-4)GlcNAc(b1-3)Gal(b1-4)GlcNAc(b1-2)Man(a1-3)[GlcNAc(b1-3)Gal(b1-4)GlcNAc(b1-3)Gal(b1-4)GlcNAc(b1-2)Man(a1-6)]Man(b1-4)GlcNAc(b1-4)GlcNAc
Procedure, shortened: as §1

[23] = molecular target: GlcNAc(b1-3)Gal(b1-4)GlcNAc(b1-3)Gal(b1-4)GlcNAc(b1-2)Man(a1-3)[GlcNAc(b1-3)Gal(b1-4)GlcNAc(b1-3)Gal(b1-4)GlcNAc(b1-2)Man(a1-6)]Man(b1-4)GlcNAc(b1-4)[Fuc(a1-6)]GlcNAc
Procedure, shortened: as §1

[24] = molecular target: GlcNAc(b1-3)Gal(b1-4)GlcNAc(b1-3)Gal(b1-4)GlcNAc(b1-2)[GlcNAc(b1-3)Gal(b1-4)GlcNAc(b1-3)Gal(b1-4)GlcNAc(b1-6)]Man(a1-6)[GlcNAc(b1-3)Gal(b1-4)GlcNAc(b1-3)Gal(b1-4)GlcNAc(b1-2)Man(a1-3)]Man(b1-4)GlcNAc(b1-4)[Fuc(a1-6)]GlcNAc
Procedure, shortened: as §1

[25] = molecular target: GlcNAc(b1-3)Gal(b1-4)GlcNAc(b1-3)Gal(b1-4)GlcNAc(b1-3)Gal(b1-4)GlcNAc(b1-2)Man(a1-3)[GlcNAc(b1-3)Gal(b1-4)GlcNAc(b1-3)Gal(b1-4)GlcNAc(b1-3)Gal(b1-4)GlcNAc(b1-2)Man(a1-6)]Man(b1-4)GlcNAc(b1-4)GlcNAc
Procedure, shortened: as §1

[26] = molecular target: GlcNAc(b1-3)Gal(b1-4)GlcNAc(b1-3)Gal(b1-4)GlcNAc(b1-3)Gal(b1-4)GlcNAc(b1-2)Man(a1-3)[GlcNAc(b1-3)Gal(b1-4)GlcNAc(b1-3)Gal(b1-4)GlcNAc(b1-3)Gal(b1-4)GlcNAc(b1-2)Man(a1-6)]Man(b1-4)GlcNAc(b1-4)[Fuc(a1-6)]GlcNAc
Procedure, shortened: as §1

[27] = molecular target: GlcNAc(b1-3)Gal(b1-4)GlcNAc(b1-3)Gal(b1-4)GlcNAc(b1-3)Gal(b1-4)GlcNAc(b1-2)[GlcNAc(b1-3)Gal(b1-4)GlcNAc(b1-3)Gal(b1-4)GlcNAc(b1-3)Gal(b1-4)GlcNAc(b1-6)]Man(a1-6)[GlcNAc(b1-3)Gal(b1-4)GlcNAc(b1-3)Gal(b1-4)GlcNAc(b1-3)Gal(b1-4)GlcNAc(b1-2)Man(a1-3)]Man(b1-4)GlcNAc(b1-4)[Fuc(a1-6)]GlcNAc
Procedure, shortened: as §1

[28] = molecular target: GlcNAc(b1-3)Gal(b1-4)GlcNAc(b1-3)Gal(b1-4)GlcNAc(b1-3)Gal(b1-4)GlcNAc(b1-3)Gal(b1-4)GlcNAc(b1-2)Man(a1-3)[GlcNAc(b1-3)Gal(b1-4)GlcNAc(b1-3)Gal(b1-4)GlcNAc(b1-3)Gal(b1-4)GlcNAc(b1-3)Gal(b1-4)GlcNAc(b1-2)Man(a1-6)]Man(b1-4)GlcNAc(b1-4)GlcNAc
Procedure, shortened: as §1

[29] = molecular target: GlcNAc(b1-3)Gal(b1-4)GlcNAc(b1-3)Gal(b1-4)GlcNAc(b1-3)Gal(b1-4)GlcNAc(b1-3)Gal(b1-4)GlcNAc(b1-2)Man(a1-3)[GlcNAc(b1-3)Gal(b1-4)GlcNAc(b1-3)Gal(b1-4)GlcNAc(b1-3)Gal(b1-4)GlcNAc(b1-3)Gal(b1-4)GlcNAc(b1-2)Man(a1-6)]Man(b1-4)GlcNAc(b1-4)[Fuc(a1-6)]GlcNAc
Procedure, shortened: as §1

[30] = molecular target: GlcNAc(b1-3)Gal(b1-4)GlcNAc(b1-3)Gal(b1-4)GlcNAc(b1-3)Gal(b1-4)GlcNAc(b1-3)Gal(b1-4)GlcNAc(b1-2)[GlcNAc(b1-3)Gal(b1-4)GlcNAc(b1-3)Gal(b1-4)GlcNAc(b1-3)Gal(b1-4)GlcNAc(b1-3)Gal(b1-4)GlcNAc(b1-6)]Man(a1-6)[GlcNAc(b1-3)Gal(b1-4)GlcNAc(b1-3)Gal(b1-4)GlcNAc(b1-3)Gal(b1-4)GlcNAc(b1-3)Gal(b1-4)GlcNAc(b1-2)Man(a1-3)]Man(b1-4)GlcNAc(b1-4)[Fuc(a1-6)]GlcNAc
Procedure, shortened: as §1

B1: PX14343F-bfa-562-20-562 (Bacteroides fragilis) (protein)
chain: CDDFLDSFPQDTVTNENFWKSKEDADKVLVDIYASLLPKDAIFFDEAMSDNAYLVWDWWGGAQQVANGSYTTSGEIPTNRWNGSYEVIRKCWFLLEGIEKIEDISEQDKNKIIGETYFMLAYNYYVLTSYFGDVPLVTKTLAIPESKQLVRTPKAEVVDYAINKLKEAAVMLEGLSQEKGRVTADACRFLIARMYLYNGDYSNVLETVKLLEGKYQLYREGDTPYEDLFSGVAENSCEVILSVVCDKRVGEIYTSHGGNGIMLLKGITGEDPYRGVTPSGSLVDAYPMADGRLIHEAGSSYDPKKPYEGRDPRFYQSIVYPTGQIKYLDVETGTVKERLYDPEDPTTVPEHQYNYSQPSATGYMWNKYIDYSVYAMNSVWDCTNDIIVFRYADVLLMKAEALLQTKGESAKEEVCNLIDQLRDRCSCGRVHRENYNSKDELMELLKNERRIELANEGLRYMDLIRWKDAEKNTIVTGVGLTGQMYGAYMRKDGVGKDDKTVDVDNTPRRYIETRYFNASKGYLFPIPQKERDLNPNLTQNPNW
In the case of B1, the “glycan array binding signal (z-score)” value [1] is reported as 0.44, the “glycan array binding signal (z-score)” value [2] is reported as -0.414 and the “glycan array binding signal (z-score)” value [3] is reported as 0.561. The “glycan array binding signal (z-score)” value [4] was -0.464, the “glycan array binding signal (z-score)” value [5] was -0.489 and the “glycan array binding signal (z-score)” value [6] was -0.748. For the same binder, the “glycan array binding signal (z-score)” value [7] was 0.199, the “glycan array binding signal (z-score)” value [8] was -0.524 and the “glycan array binding signal (z-score)” value [9] was -0.381. For the same binder, the “glycan array binding signal (z-score)” value [10] was -0.204, the “glycan array binding signal (z-score)” value [11] was 0.283 and the “glycan array binding signal (z-score)” value [12] was 0.886. The “glycan array binding signal (z-score)” value [13] was -0.266, the “glycan array binding signal (z-score)” value [14] was -0.245 and the “glycan array binding signal (z-score)” value [15] was 0.443. The “glycan array binding signal (z-score)” value [16] was -0.75, the “glycan array binding signal (z-score)” value [17] was -0.818 and the “glycan array binding signal (z-score)” value [18] was 0.223. For the same binder, the “glycan array binding signal (z-score)” value [19] was 1.05, the “glycan array binding signal (z-score)” value [20] was 1.87 and the “glycan array binding signal (z-score)” value [21] was -0.668. For the same binder, the “glycan array binding signal (z-score)” value [22] was 1.18, the “glycan array binding signal (z-score)” value [23] was 1.72 and the “glycan array binding signal (z-score)” value [24] was 0.546. The “glycan array binding signal (z-score)” value [25] was 1.39, the “glycan array binding signal (z-score)” value [26] was 0.242 and the “glycan array binding signal (z-score)” value [27] was 0.11. The “glycan array binding signal (z-score)” value [28] was 0.436, the “glycan array binding signal (z-score)” value [29] was 0.228 and the “glycan array binding signal (z-score)” value [30] was 1.47.
